Results on one substance are retold here after PMC3909270, “The basic keratin 10-binding domain of the virulence-associated pneumococcal serine-rich protein PsrP adopts a novel MSCRAMM fold” (Open Biology, 2014).

By UniProt entry, the sequences of proteins in these tests, tags left out. Residues count along the entry.
UniProt A0A0H2URK1, residues 186-384: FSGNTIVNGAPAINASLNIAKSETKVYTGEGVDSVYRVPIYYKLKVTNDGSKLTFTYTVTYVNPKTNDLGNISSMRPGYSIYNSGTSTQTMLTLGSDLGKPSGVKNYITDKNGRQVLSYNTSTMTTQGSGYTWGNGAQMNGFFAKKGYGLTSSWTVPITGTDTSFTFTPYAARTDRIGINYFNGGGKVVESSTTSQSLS

These are yes or no findings as the source states them, for the method shown. Some results given as binding are weak or reduced against the parent protein; the word gives no strength.

The target of assay [1] is T1, KRT10 tail-rod-2B domain (KRT10-TRD) (human) (UniProt P13645).
T1 sequence: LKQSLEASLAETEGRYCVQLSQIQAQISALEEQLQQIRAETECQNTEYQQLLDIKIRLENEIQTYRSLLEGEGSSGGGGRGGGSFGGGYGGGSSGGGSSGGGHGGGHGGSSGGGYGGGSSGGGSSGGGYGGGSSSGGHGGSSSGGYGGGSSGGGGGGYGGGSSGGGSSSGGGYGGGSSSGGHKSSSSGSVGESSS
In words: ELISA; KRT10-TRD coated; WT-BR_(187–385) and mutated variants at a single concentration of 1 µM; detected with Strep-Tactin HRP; normalised intensities; both purified. A general note: ELISA stands for enzyme-linked immunosorbent assay.

Assay [2] has as its target KRT10 head-rod-1A domain (KRT10-HRD) (human) (UniProt P13645). The assay is described as follows: ELISA; KRT10 constructs coated on Nunc C96 plates (coating adjusted to KRT10-TRD at about 5 µg/ml), 2% BSA block; STII-BR_(187–385) 23 nM to 3 µM in PBS; detected with Strep-Tactin HRP; four-parameter logistic fit; both purified.
Assay [3] has as its target full-length keratin-10 (KRT10-FL) (human) (UniProt P13645). The assay is described as follows: pull-down; KRT10-FL immobilised on Ni-NTA magnetic agarose beads; 100 µl of 25 µM STII-BR_(187–385) incubated 1 h in 20 mM HEPES, 50 mM NaCl, 10% glycerol, pH 7.5; washes with 300 mM NaCl, 20 mM imidazole, 0.2% Triton X-100; SDS-PAGE of beads; both purified.

Take “Strep-Tag-II BR_(187–385) (KRT10-binding domain of the pneumococcal serine-rich repeat protein PsrP) (from UniProt A0A0H2URK1 186-384) (domain or fragment)”: the binding result in assay [1] is on record as “binds”; in assay [2], “binds weakly”; in assay [3], “binds”.
